The results in this text go back to publication PMC3566007.

Amino acid sequences for entries named in this document (tags omitted). A change or cut given only in a name is not applied to a line headed by its entry.
UniProt O88634: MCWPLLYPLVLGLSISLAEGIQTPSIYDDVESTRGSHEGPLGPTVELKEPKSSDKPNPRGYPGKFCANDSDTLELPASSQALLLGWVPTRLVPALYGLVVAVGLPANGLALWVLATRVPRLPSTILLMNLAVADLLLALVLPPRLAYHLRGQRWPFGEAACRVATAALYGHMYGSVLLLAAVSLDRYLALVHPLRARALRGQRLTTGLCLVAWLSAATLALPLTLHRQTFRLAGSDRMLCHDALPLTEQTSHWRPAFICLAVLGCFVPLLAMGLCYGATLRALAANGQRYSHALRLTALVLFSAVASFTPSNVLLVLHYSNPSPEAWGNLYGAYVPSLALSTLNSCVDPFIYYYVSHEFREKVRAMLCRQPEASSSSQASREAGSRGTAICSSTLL
UniProt O08675: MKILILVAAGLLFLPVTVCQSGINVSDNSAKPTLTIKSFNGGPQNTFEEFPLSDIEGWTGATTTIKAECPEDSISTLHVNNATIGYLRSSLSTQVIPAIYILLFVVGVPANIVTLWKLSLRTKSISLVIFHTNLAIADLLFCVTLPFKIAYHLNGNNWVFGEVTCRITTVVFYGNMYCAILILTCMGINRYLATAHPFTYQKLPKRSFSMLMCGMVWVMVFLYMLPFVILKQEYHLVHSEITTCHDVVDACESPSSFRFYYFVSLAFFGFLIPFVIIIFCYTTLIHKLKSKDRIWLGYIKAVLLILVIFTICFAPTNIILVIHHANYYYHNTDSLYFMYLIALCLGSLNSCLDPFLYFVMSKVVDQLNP

These are yes or no findings as the source states them, for the method shown. In cells and extracts the contact can be indirect. A result given as binding can be weak or reduced; the word gives no strength.

This assay addresses mouse protease activated receptor 4 (PAR4) (mouse) (UniProt O88634). Kind of assay: FRET or BRET; BRET in HEK293 cells, 48 h after transfection; Luc-tagged donor constant (1 µg DNA), GFP-tagged acceptor increased (0–2.5 µg; rho-GFP 0–0.12 µg); BRET plotted against the GFP to Luc ratio, global fit to a hyperbolic or linear curve, 3–6 independent experiments. A general note: Bioluminescence resonance energy transfer reports proximity on the nanometre scale.

In the case of “mouse protease activated receptor 3 (PAR3) (from UniProt O08675)”, the binding entry is “binds”.
